Measurements published in paper PMC10657444, “Design and evaluation of tadpole-like conformational antimicrobial peptides” (Communications Biology, 2023).
Several values for one entry are separate records, joined by “and”; a condition that tells them apart may be missing. Equal entries are not always repeated. The source gives many values for each of these; only a part stands here. Residues, ends and D or L forms follow the SMILES beside them.

What was measured:
[1] = tested on: K. pneumoniae ATCC 700603; assay: Membrane depolarization assay, DiSC3(5); type: cell-based, Klebsiella pneumoniae
Method: (§1) MRSA USA 300 and K. pneumoniae ATCC 700603 were inoculated into 5 mL of LB and shaken at 37°C and 225 rpm to OD600 ≈ 0.5 (i.e., mid-logarithmic phase). Bacteria were collected by centrifugation at 8000 rpm for 5 min, and washed twice with assay buffer (5 mM HEPES, 20 mM glucose, 10 mM KCl, pH 7.2). Bacteria were resuspended in the assay buffer to OD595 ≈ 0.1. DiSC3(5) was added to the cells at final concentration of 0.3 µM, wrapped with aluminum foil, and incubated at 37°C, until a stable fluorescence was observed. Two microliter of compound or DMSO were transferred into 96-well black walled polystyrene plates, to which was added 98 µL per well of the dye-saturated bacterial cells to initiate the reaction. The final concentration of HT2 and RI-HT2 were 1 ×, 2 ×, 4 × and 8 × MIC. Plates were immediately read on an Envison at λex = 622 nm/ λem = 670 nm with a kinetic program (reading every 1 min for 10 min) until the maximal intensity achieved was observed.

[2] = tested on: MRSA USA 300; assay: Membrane depolarization assay, DiSC3(5); type: cell-based, Staphylococcus aureus
Method: as §1

## CC[C@H](C)[C@H](NC(=O)[C@H](CCCNC(=N)N)NC(=O)[C@H](CCCNC(=N)N)NC(=O)[C@H](CC(C)C)NC(=O)[C@H](Cc1ccccc1)NC(=O)[C@@H](N)CCCNC(=N)N)C(=O)N[C@@H](Cc1ccccc1)C(=O)N[C@@H](Cc1ccccc1)C(=O)N[C@@H](Cc1ccccc1)C(=O)N[C@@H](Cc1ccccc1)C(N)=O [HT2] (H-RFLRRIFFFF-NH2)
[1]; 8 × MIC, time 2 min
  Fluorescence intensity: 306592 and 281292 and 278949
[1]; 8 × MIC, time 3 min
  Fluorescence intensity: 509097 and 487092 and 466724
[1]; 8 × MIC, time 4 min
  Fluorescence intensity: 554570 and 519763 and 475828
[1]; 8 × MIC, time 5 min
  Fluorescence intensity: 559925 and 528438 and 515396
[1]; 8 × MIC, time 6 min
  Fluorescence intensity: 604076 and 554173 and 584073
[1]; 8 × MIC, time 7 min
  Fluorescence intensity: 675156 and 586320 and 620163
[1]; 8 × MIC, time 8 min
  Fluorescence intensity: 678438 and 605666 and 584257
[1]; 8 × MIC, time 9 min
  Fluorescence intensity: 634065 and 620346 and 585359
[1]; 8 × MIC, time 10 min
  Fluorescence intensity: 631655 and 607518 and 607775
[1]; MIC, time 0 min
  Fluorescence intensity: 265359 and 273203 and 280202
[1]; MIC, time 2 min
  Fluorescence intensity: 248778 and 258601 and 249952
[1]; MIC, time 3 min
  Fluorescence intensity: 428479 and 457587 and 426641
[1]; MIC, time 4 min
  Fluorescence intensity: 445392 and 457798 and 421183
[1]; MIC, time 5 min
  Fluorescence intensity: 443463 and 444683 and 410451
[1]; MIC, time 6 min
  Fluorescence intensity: 393228 and 408494 and 378335
[1]; MIC, time 7 min
  Fluorescence intensity: 372004 and 372507 and 351114
[1]; MIC, time 8 min
  Fluorescence intensity: 379853 and 385402 and 371516
[1]; MIC, time 9 min
  Fluorescence intensity: 348331 and 385494 and 353788
[1]; MIC, time 10 min
  Fluorescence intensity: 352784 and 382102 and 364571
[2]; 2 × MIC, time 0 min
  Fluorescence intensity: 407359 and 437585 and 424634
[2]; 2 × MIC, time 2 min
  Fluorescence intensity: 412470 and 415315 and 402376
[2]; 2 × MIC, time 3 min
  Fluorescence intensity: 516376 and 562498 and 601474
[2]; 2 × MIC, time 4 min
  Fluorescence intensity: 510300 and 570800 and 630470
[2]; 2 × MIC, time 5 min
  Fluorescence intensity: 496322 and 506547 and 579475
[2]; 2 × MIC, time 6 min
  Fluorescence intensity: 456323 and 447824 and 539307
[2]; 2 × MIC, time 7 min
  Fluorescence intensity: 440360 and 434093 and 489563
[2]; 2 × MIC, time 8 min
  Fluorescence intensity: 452668 and 427523 and 487829
[2]; 2 × MIC, time 9 min
  Fluorescence intensity: 422148 and 429265 and 465890
[2]; 2 × MIC, time 10 min
  Fluorescence intensity: 449615 and 438352 and 460148
[2]; 4 × MIC, time 0 min
  Fluorescence intensity: 441413 and 536565 and 417503
[2]; 4 × MIC, time 2 min
  Fluorescence intensity: 426554 and 514956 and 416285
[2]; 4 × MIC, time 3 min
  Fluorescence intensity: 717544 and 870397 and 699081
[2]; 4 × MIC, time 4 min
  Fluorescence intensity: 757392 and 920774 and 755685
[2]; 4 × MIC, time 5 min
  Fluorescence intensity: 764744 and 883071 and 715560
[2]; 4 × MIC, time 6 min
  Fluorescence intensity: 838405 and 834258 and 708253
[2]; 4 × MIC, time 7 min
  Fluorescence intensity: 823066 and 809554 and 784437
[2]; 4 × MIC, time 8 min
  Fluorescence intensity: 888884 and 803808 and 844536
[2]; 4 × MIC, time 9 min
  Fluorescence intensity: 871568 and 912228 and 905614
[2]; 4 × MIC, time 10 min
  Fluorescence intensity: 891952 and 894730 and 891104
[2]; 8 × MIC, time 0 min
  Fluorescence intensity: 427661 and 397617 and 379474
[2]; 8 × MIC, time 2 min
  Fluorescence intensity: 417704 and 400976 and 367495
[2]; 8 × MIC, time 3 min
  Fluorescence intensity: 823344 and 814418 and 781673
[2]; 8 × MIC, time 4 min
  Fluorescence intensity: 953549 and 861939 and 867753
[2]; 8 × MIC, time 5 min
  Fluorescence intensity: 947843 and 975941 and 1002968
[2]; 8 × MIC, time 6 min
  Fluorescence intensity: 1148941 and 1125882 and 1075269
[2]; 8 × MIC, time 7 min
  Fluorescence intensity: 1294211 and 1246379 and 1153072
[2]; 8 × MIC, time 8 min
  Fluorescence intensity: 1320642 and 1222140 and 1153431
[2]; 8 × MIC, time 9 min
  Fluorescence intensity: 1265654 and 1251184 and 1176714
[2]; 8 × MIC, time 10 min
  Fluorescence intensity: 1308322 and 1257311 and 1209416
[2]; MIC, time 0 min
  Fluorescence intensity: 387778 and 420337 and 427383
[2]; MIC, time 2 min
  Fluorescence intensity: 408657 and 432470 and 415073
[2]; MIC, time 3 min
  Fluorescence intensity: 528052 and 492360 and 502885
[2]; MIC, time 4 min
  Fluorescence intensity: 519221 and 460003 and 458630
[2]; MIC, time 5 min
  Fluorescence intensity: 456271 and 419492 and 438575
[2]; MIC, time 6 min
  Fluorescence intensity: 442184 and 426092 and 424293
[2]; MIC, time 7 min
  Fluorescence intensity: 424790 and 424169 and 440889
[2]; MIC, time 8 min
  Fluorescence intensity: 429913 and 411441 and 435378
[2]; MIC, time 9 min
  Fluorescence intensity: 435238 and 427525 and 409496
[2]; MIC, time 10 min
  Fluorescence intensity: 448666 and 423826 and 425972
